PubChem BioAssay AID1159584 | Peter MacCallum Cancer Centre – 2016

Assay: 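Knock-downs that harm CDH1-null cells more than parental MCF10A cells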 (primary screen)
System: human MCF10A breast epithelial cells, parental and CDH1-null
Reagents: siRNA against human genes
Measured: 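Cell viability by CellTiter-Glo ATP luminescence, each line scaled to the mean of mock wells across plates, then CDH1-null over parental ratio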
Reading the numbers: CDH1-null / parental viability ratio: higher = CDH1-null cells survive relatively better than parental; CDH1-null viability vs mock: higher = more viable CDH1-null cells; parental viability vs mock: higher = more viable parental cells
This is one part, drawn at random, of about 18,000 deposited reagents. Reagent sequences are not shown. Not given: the amount of reagent, the time to read-out.

no.	Gene	CDH1-null / parental viability ratio	CDH1-null viability vs mock (fraction of mock)	parental viability vs mock (fraction of mock)
1	SRPRB (SRP receptor subunit beta)	0.92	0.82	0.89
2	DYNLL2 (dynein light chain LC8-type 2)	1	0.8	0.8
3	BMI1 (BMI1 proto-oncogene, polycomb ring finger)	1	0.92	0.92
4	GAPVD1 (GTPase activating protein and VPS9 domains 1)	0.86	0.76	0.88
5	PLEKHA6 (pleckstrin homology domain containing A6)	1.06	0.66	0.62
6	GPR85 (G protein-coupled receptor 85)	1.05	0.82	0.78
7	PRDX5 (peroxiredoxin 5)	0.97	0.98	1.01
8	GLS2 (glutaminase 2)	1.27	0.84	0.66
9	ZNG1E (Zn regulated GTPase metalloprotein activator 1E)	0.68	0.56	0.82
10	LRRC52 (leucine rich repeat containing 52)	1.17	0.91	0.78
11	NRM (nurim)	1.09	0.94	0.86
12	MGAT2	0.9	0.7	0.78
13	PDE2A (phosphodiesterase 2A)	1.07	1.03	0.96
14	DNAJC25 (DnaJ heat shock protein family (Hsp40) member C25)	0.83	0.62	0.75
15	RAB19 (RAB19, member RAS oncogene family)	0.74	0.5	0.68
16	GTF3C5 (general transcription factor IIIC subunit 5)	1.1	0.88	0.8
17	TAF1B	0.83	0.58	0.7
18	ZNF202 (zinc finger protein 202)	0.83	0.76	0.92
19	SLC25A3	1.24	1.14	0.92
20	ACTL6A (actin like 6A)	1.04	0.88	0.85
21	NCKIPSD (NCK interacting protein with SH3 domain)	1.24	0.78	0.63
22	DBX2 (developing brain homeobox 2)	1	0.62	0.62
23	LSM8 (LSM8 homolog, U6 small nuclear RNA associated)	1.33	0.6	0.45
24	CCL19 (C-C motif chemokine ligand 19)	1.17	0.98	0.84
25	DIPK1B (divergent protein kinase domain 1B)	1.19	1.01	0.85
26	RARG (retinoic acid receptor gamma)	1.1	0.74	0.67
27	ISLR2 (immunoglobulin superfamily containing leucine rich repeat 2)	1.01	0.85	0.84
28	GRM2 (glutamate metabotropic receptor 2)	0.72	0.57	0.79
